Data: patent US20240141036A1
Results are given in words; binding and its absence hold for the method and conditions named. Some entries that bind do so weakly or less than the wild type.

T1: Lrig-1 protein expressed on the surface of L cells (human) (UniProt Q96JA1)
T1 sequence: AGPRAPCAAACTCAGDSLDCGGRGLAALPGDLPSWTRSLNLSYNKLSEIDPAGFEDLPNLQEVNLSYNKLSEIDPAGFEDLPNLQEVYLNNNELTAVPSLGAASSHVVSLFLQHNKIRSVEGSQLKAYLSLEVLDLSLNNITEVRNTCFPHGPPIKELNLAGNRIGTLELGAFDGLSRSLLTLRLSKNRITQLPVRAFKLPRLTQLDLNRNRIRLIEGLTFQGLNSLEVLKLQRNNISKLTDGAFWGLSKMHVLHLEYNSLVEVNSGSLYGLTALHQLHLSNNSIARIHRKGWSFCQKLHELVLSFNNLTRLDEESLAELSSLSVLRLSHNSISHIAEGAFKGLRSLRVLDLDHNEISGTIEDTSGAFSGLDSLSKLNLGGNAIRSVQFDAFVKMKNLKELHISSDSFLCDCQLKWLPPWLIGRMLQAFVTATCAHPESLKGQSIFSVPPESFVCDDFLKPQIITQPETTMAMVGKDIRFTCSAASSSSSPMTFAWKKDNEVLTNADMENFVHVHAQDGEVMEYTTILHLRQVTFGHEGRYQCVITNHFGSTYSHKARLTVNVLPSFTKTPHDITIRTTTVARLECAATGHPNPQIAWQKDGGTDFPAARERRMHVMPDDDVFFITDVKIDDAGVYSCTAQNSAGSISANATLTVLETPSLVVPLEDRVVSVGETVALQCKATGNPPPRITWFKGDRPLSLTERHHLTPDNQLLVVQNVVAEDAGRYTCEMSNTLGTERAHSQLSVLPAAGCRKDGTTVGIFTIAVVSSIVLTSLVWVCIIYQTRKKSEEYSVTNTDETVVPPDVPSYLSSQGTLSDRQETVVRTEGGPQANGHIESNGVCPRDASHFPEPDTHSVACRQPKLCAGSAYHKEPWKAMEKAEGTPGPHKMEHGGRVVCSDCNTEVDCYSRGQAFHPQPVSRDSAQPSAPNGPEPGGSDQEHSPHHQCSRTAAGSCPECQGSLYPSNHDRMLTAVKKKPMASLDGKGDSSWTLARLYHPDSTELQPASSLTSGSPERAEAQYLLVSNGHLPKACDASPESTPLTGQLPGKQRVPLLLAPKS


Molecular target: T1, Lrig-1 protein expressed on the surface of L cells (human)
Test: FACS on L cells stably expressing Lrig-1, eFlour 670-conjugated secondary antibody

Row | binding | Binder
1 | binds | GTC210-01 clone (Preparation Example 1) (antibody, mouse IgG2a, V domains shown) VH: EVQLLESGGGLVQPGGSLRLSCAASGFTFSGYDMSWVRQAPGKGLEWVSLIYPDSGNKYYADSVKGRFTISRDNSKNTLYLQMNSLRAEDTAVYYCARDAGLSWAGAFDYWGQGTLVTVSS VL: QSVLTQPPSASGTPGQRVTISCSGSSSNIGSNYVTWYQQLPGTAPKLLIYSDSHRPSGVPDRFSGSKSGTSASLAISGLQSEDEADYYCGSWDYSLSAYVFGGGTKLTVLR
2 | binds | GTC110-02 clone (Preparation Example 6) (antibody, mouse IgG2a, V domains shown) VH: EVQLLESGGGLVQPGGSLRLSCAASGFTFSDYYMSWVRQAPGKGLEWVSGISHDSGSKYYADSVKGRFTISRDNSKNTLYLQMNSLRAEDTAVYYCARHWTTFDYWGQGTLVTVSS VL: QSVLTQPPSASGTPGQRVTISCSGSSSNIGSNNVTWYQQLPGTAPKLLIYANSNRPSGVPDRFSGSKSGTSASLAISGLRSEDEADYYCGAWDYSLSAYVFGGGTKLTVLR
3 | binds | GTC210-02 clone (Preparation Example 2) (antibody, mouse IgG2a, V domains shown) VH: EVQLLESGGGLVQPGGSLRLSCAASGFTFSNYYMSWVRQAPGKGLEWVSGISPGDSSTYYADSVKGRFTISRDNSKNTLYLQMNSLRAEDTAVYYCAKGLYSNPNEPFDYWGQGTLVTVSS VL: QSVLTQPPSASGTPGQRVTISCTGSSSNIGSNYVSWYQQLPGTAPKLLIYDDSQRPSGVPDRFSGSKSGTSASLAISGLRSEDEADYYCGTWDYSLNGYVFGGGTKLTVLR
4 | binds | GTC210-03 clone (Preparation Example 3) (antibody, mouse IgG2a, V domains shown) VH: EVQLLESGGGLVQPGGSLRLSCAASGFTFSSYDMSWVRQAPGKGLEWVSGISPDGSNIYYADSVKGRFTISRDNSKNTLYLQMNSLRAEDTAVYYCAKVGLRCRYEACSYAYGMDVWGQGTLVTVSS VL: QSVLTQPPSASGTPGQRVTISCSGSSSNIGSNYVSWYQQLPGTAPKLLIYSDSHRPSGVPDRFSGSKSGTSASLAISGLRSEDEADYYCATWDSSLNGYVFGGGTKLTVLR
5 | binds | GTC110-03 clone (Preparation Example 7) (antibody, mouse IgG2a, V domains shown) VH: EVQLLESGGGLVQPGGSLRLSCAASGFTFSNYAMSWVRQAPGKGLEWVSAIYPGGGSIYYADSVKGRFTISRDNSKNTLYLQMNSLRAEDTAVYYCARDILPCPWGRCYYDYAMDVWGQGTLVTVSS VL: QSVLTQPPSASGTPGQRVTISCSDSSSNIGSNTVSWYQQLPGTAPKLLIYADNNRPSGVPDRFSGSKSGTSASLAISGLRSEDEADYYCGTWDYSLSGYVFGGGTKLTVLR
6 | binds | GTC210-04 clone (Preparation Example 4) (antibody, mouse IgG2a, V domains shown) VH: EVQLLESGGGLVQPGGSLRLSCAASGFTFSNYDMSWVRQAPGKGLEWVSSISPSSGSIYYADSVKGRFTISRDNSKNTLYLQMNSLRAEDTAVYYCAKDLDAFWRPSFDYWGQGTLVTVSS VL: QSVLTQPPSASGTPGQRVTISCTGSSSNIGNNNVNWYQQLPGTAPKLLIYSDSHRPSGVPDRFSGSKSGTSASLAISGLRSEDEADYYCGSWDDSLSAYVFGGGTKLTVLR
